Part of at least one peptide drawing is inferred or uncertain, most often the ends. Where a SMILES comes first, the peptide text is derived from it. The star is where a group is joined. RhodamineB = CCN(CC)c1ccc2c(-c3ccccc3C(=O)*)c3ccc(=[N+](CC)CC)cc-3oc2c1
Test system: human blood platelet function
Test: Shear modulus of platelet rich plasma (PRP) during gel formation
Type: cell-based
Conditions: added to PRP; 20 μM printed for rhodamine-GS160-169

For CCN(CC)c1ccc2c(-c3ccccc3C(=O)N[C@@H](CCC(N)=O)C(=O)N[C@@H](CCCNC(=N)N)C(=O)N[C@@H](CC(C)C)C(=O)N[C@@H](Cc3ccccc3)C(=O)N[C@@H](CCC(N)=O)C(=O)N[C@H](C(=O)N[C@@H](CCCCN)C(=O)NCC(=O)N[C@@H](CCCNC(=N)N)C(=O)N[C@@H](CCCNC(=N)N)C(=O)O)C(C)C)c3ccc(=[N+](CC)CC)cc-3oc2c1 [rhodamine-Sequence I.D. No. 2 conjugate] (RhodamineB-QRLFQVKGRR-OH), the “shear modulus of PRP clot (platelet function)” value was “same relatively low shear modulus as a PPP clot”.
